# For at least one compound, name, drawing or mass did not settle the structure.
# System: two component sensor (TVMV-inducible HCV fused to FRB and thrombin-inducible TVMV fused to FKBP12)
# Experiment: Two component rapamycin activated protease sensor: titration of rapamycin, HCV protease activity on quenched fluorescent substrate peptide
# Format: biochemical
# Conditions: 5 μM quenched fluorescent substrate peptide
smiles,measurement,value
CO[C@H]1C[C@@H]2CC[C@@H](C)[C@@](O)(O2)C(=O)C(=O)N2CCCC[C@H]2C(=O)O[C@H]([C@H](C)C[C@@H]2CC[C@@H](O)[C@H](OC)C2)CC(=O)[C@H](C)/C=C(\C)[C@@H](O)[C@@H](OC)C(=O)[C@H](C)C[C@H](C)/C=C/C=C/C=C/1C [rapamycin],rapamycin concentration at which HCV activation of the two component sensor is induced,sub pM

# — US9772328B2, “Bimolecular protease-based biosensor” (The University of Queensland, priority 2013, dated 2017)
